Data: publication PMC6690549

Amino acid sequences for entries named in this document (tags omitted). A change or cut given only in a name is not applied to a line headed by its entry.
UniProt Q8TBK6: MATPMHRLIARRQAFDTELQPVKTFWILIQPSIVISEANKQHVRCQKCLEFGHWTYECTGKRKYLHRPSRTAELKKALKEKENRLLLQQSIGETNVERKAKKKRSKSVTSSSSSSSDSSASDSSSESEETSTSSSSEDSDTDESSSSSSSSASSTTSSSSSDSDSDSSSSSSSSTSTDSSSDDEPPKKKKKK

Assays:
Experiment in all cases: co-IP; A2058 cells transiently co-transfected with one FLAG-tagged and one non-tagged expression vector, harvested after 24 h; lysis buffer 100 mM Tris HCl pH 7.5, 300 mM NaCl, 2 mM EDTA, 2% Triton X-100; anti-FLAG M2 affinity gel (FLAG Immunoprecipitation Kit); western blotting with anti-PITX1 and anti-ZCCHC10 antibodies; control: empty FLAG vector
[1] = target: FLAG-PITX1 deleted OAR (OAR domain deleted) (human) (UniProt P78337)
[2] = target: FLAG-PITX1 homeodomain 2 (half of the C-terminal side of the homeodomain deleted) (human) (UniProt P78337)
[3] = target: FLAG-tagged ZCCHC10 in which the CCHC domain was deleted (human) (UniProt Q8TBK6)

| Substance | binding [1] | binding [2] | binding [3] |
| --- | --- | --- | --- |
| ZCCHC10, wild type, non-tagged expression vector (from UniProt Q8TBK6 1-192) | binds | no binding | – |
| PITX1, wild type, non-tagged expression vector (from UniProt P78337 1-314) | – | – | no binding |

No constants are given. Whether binding was seen depends on the method and setting. Binding seen in cells or lysates may run through a third protein. For part of these data: A result given as binding can be weak or reduced; the word gives no strength.
